# Data taken from patent US20080207864A1, “Organosilanes, Process For Production of the Same, and Use Thereof” (priority 2004, published 2008).
# Test: Organic TFT device properties
# Settings: Table 1, organic TFT device with the material as semiconductor layer
Compound,Mobility,ON/OFF ratio
"CCCCCCCCc1cc2[nH]c3cc([Si](OC)(OC)OC)ccc3c2cc1CCCCCCCC [Example 16-1, 2-trimethoxysilyl-6,7-dioctylcarbazole]",2.2 × 10^−2,5
"CCCCCCCCCCCCCCCCCCc1ccc2c(c1)-c1ccc([Si](OC)(OC)OC)cc1C2 [Example 16-3, 2-trimethoxysilyl-6-octadecylfluorene]",1.2 × 10^−2,4
CCCCCCCCCCCCCCCCCCc1ccc2c(c1)sc1cc(-c3ccc4c(c3)sc3cc([Si](OC)(OC)OC)ccc34)ccc12 [Example 16-4],7.5 × 10^−2,5
CCCCCCCCCCCCCCCCCCc1ccc2cc3c(ccc4cc5cc([Si](OCC)(OCC)OCC)ccc5cc43)cc2c1 [Example 16-5],0.15,6
"CCCCCCCCCCCCCCCCCCc1cccc2c3c(ccc12)-c1cc([Si](OC)(OC)OC)cc2cccc-3c12 [Example 16-8, 5-trimethoxysilyl-9-octadecylbenzofluoranthene]",4.0 × 10^−2,5

# Same assay, conditions: compound as organic semiconductor layer; FIG. 8 to 11
Compound,field-effect mobility of organic TFT,on/off ratio of organic TFT
Si(OC2H5)3[Si(OC2H5)3]P7[C15]C15 [Example 15-4],2.3×10^−1 cm^2/Vs,about 6 digit
Si(OCH3)3[Si(OCH3)3]P9[C21]C21 [Example 15-5],2.7×10^−1 cm^2/Vs,about 6 digit
